{"source": "PubChem BioAssay AID504791 (Drosophila RNAi Screening Center, 2011)", "aim": "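Genes of the fly required for silencing by miRNA, siRNA or endo-siRNA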 (primary screen)", "cell system": "Drosophila S2-derived reporter cells", "reagents": "long dsRNA against Drosophila genes, about 150-250 ng dsRNA per well (siRNA assay); about 80-120 ng (miRNA assay)", "time to read-out": "about 5 days (siRNA assay); about 4 days (miRNA assay)", "treatment": "copper sulfate induction of reporters: 25 µM (siRNA assay); 200 mM stated (miRNA assay), 1-2 days before reading", "detection": "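Per-well ratio of Renilla over firefly light, expressed relative to that plate's average ratio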", "units": "stable assay Renilla, run 1 in luminescence; stable assay firefly, run 1 in luminescence", "rule for the call": "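First-pass picks had plate-scaled ratios over 1.5 for the siRNA assay, over 1.6 for the miRNA assay, or under 0.6; two distinct dsRNAs had to score alike on retest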", "note": "The screen tested about 23,000 reagents; this is an unselected part of those that have a named target and a result. Of all reagents, 199 (0.86%) are marked active. 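Plate-scaled ratios behind the calls are not deposited; printed light signals are raw; many rows marked increased or decreased are still called inactive.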 Not stated in the record: the direction of the score."}
{"target":"CLIP-190","DRSC id":"DRSC03283","stable assay Renilla, run 1":8892,"stable assay firefly, run 1":1.67e6,"outcome":"inactive"}
{"target":"Fer2","DRSC id":"DRSC15925","stable assay Renilla, run 1":6652,"stable assay firefly, run 1":5.01e5,"outcome":"inactive"}
{"target":"Glg1","DRSC id":"DRSC11815","stable assay Renilla, run 1":8222,"stable assay firefly, run 1":4.06e5,"outcome":"inactive"}
{"target":"Glg1","DRSC id":"DRSC11816","stable assay Renilla, run 1":6755,"stable assay firefly, run 1":5.24e5,"outcome":"inactive"}
{"target":"Glg1","DRSC id":"DRSC11817","stable assay Renilla, run 1":7882,"stable assay firefly, run 1":5.38e5,"outcome":"inactive"}
{"target":"Atxn7","DRSC id":"DRSC00726","stable assay Renilla, run 1":8559,"stable assay firefly, run 1":1.38e5,"outcome":"inactive"}
{"target":"Atxn7","DRSC id":"DRSC23138","stable assay Renilla, run 1":4023,"stable assay firefly, run 1":3.20e5,"outcome":"inactive"}
{"target":"Spase22-23","DRSC id":"DRSC15857","stable assay Renilla, run 1":7014,"stable assay firefly, run 1":3.45e5,"outcome":"inactive"}
{"target":"tup","DRSC id":"DRSC03627","stable assay Renilla, run 1":6462,"stable assay firefly, run 1":1.54e6,"outcome":"inactive"}
{"target":"pigeon","DRSC id":"DRSC03565","stable assay Renilla, run 1":1.56e5,"stable assay firefly, run 1":1.26e6,"outcome":"inactive"}
{"target":"stv","DRSC id":"DRSC09796","stable assay Renilla, run 1":9746,"stable assay firefly, run 1":4.20e5,"outcome":"inactive"}
{"target":"stv","DRSC id":"DRSC10111","stable assay Renilla, run 1":5788,"stable assay firefly, run 1":3.83e5,"outcome":"inactive"}

Entries listed so far whose target name begins with G or g (3):
{"target":"Glg1","DRSC id":"DRSC11815","stable assay Renilla, run 1":8222,"stable assay firefly, run 1":4.06e5,"outcome":"inactive"}
{"target":"Glg1","DRSC id":"DRSC11816","stable assay Renilla, run 1":6755,"stable assay firefly, run 1":5.24e5,"outcome":"inactive"}
{"target":"Glg1","DRSC id":"DRSC11817","stable assay Renilla, run 1":7882,"stable assay firefly, run 1":5.38e5,"outcome":"inactive"}
